About 2,100 (0.66%) of roughly 320,000 compounds were called active. The inconclusive results got no clear call from the source; some entries with a clear call stand among them for comparison. The call rests on the fitted dose curve; in most records, active means well fitted inhibition curve with a large enough effect in the signal ratio, with a control signal flat (not every such curve was filed as active); inconclusive means small, poorly fitted or top-dose-only effect, or effect the other way, or a change in a side signal; inactive means flat fitted curve, though single readings scatter; the % refers to the signal ratio. Potencies of inconclusive entries are doubtful fits and often do not repeat.
Assay: qHTS Assay for Lipid Storage Modulators in Drosophila S3 Cells
Conditions: BODIPY lipid droplet fluorescence, 18-24 h, cells fed with added oleic acid; lipid storage change, negative = inhibition: at 46.1 µM (top of the series) unless noted
In short: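 Laser-scanning cytometry quantifies lipid droplet accumulation (500–530 nm total intensity; droplet/cell object ratio) in oleic acid-fed (400 uM added) Drosophila S3 cells treated with a concentration series. 20 uM Triacsin C defined 100% inhibition.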
On the % scale 0 is the no-effect control and ±100 the full control effect; potency means the concentration at half of the fitted maximal effect.

Compound	Potency	lipid storage change, negative = inhibition
Cc1cc2cc(CNC(=O)C(C)Oc3ccccc3)ccc2n1C (stereo not given)	inconclusive: 4.11 µM [activator, partial curve, poor fit]	
Cc1nc(-c2ccccn2)nc(SCC(=O)N2CCOCC2)c1Cl		inconclusive: 18.9%
Cc1ccc(Oc2ccc(NC(=O)CSc3n[nH]c(N)n3)cc2)cc1	inconclusive: 0.517 µM [rising, full curve]	
O=C(CCOc1ccccc1)Nc1ccc(S(=O)(=O)Nc2ncccn2)cc1		inconclusive: 10.3%
CNC(=S)NNc1ccccc1[N+](=O)[O-]		inconclusive: -33.8%
CCc1nccn1S(=O)(=O)c1cc(C)c(OC)cc1C	inconclusive: 29.1 µM [cytotoxic, partial curve]	
COC(C(=O)Nc1cccc(F)c1)c1ccccc1 (stereo not given)	inconclusive: 0.411 µM [falling, single point]	
CCOc1cccc(CNc2ccc(O)cc2)c1OCc1ccc(Cl)cc1Cl	inconclusive: 29.1 µM [falling, single point]	
COc1cc2[nH]c(C(=O)N3CCc4ccccc43)cc2c(OC)c1OC		inconclusive: 14.2%
Cc1nc2sc3c(NCc4ccco4)ncnc3c2c2c1COC(C)(C)C2		inconclusive: -20.7%
Cc1cc2c(cc1S(=O)(=O)NCCc1ccc(Cl)cc1)OCC(=O)N2	inconclusive: 29.1 µM [falling, single point]	
O=C(NCc1ccc(F)cc1)c1cc(-c2ccco2)on1		inconclusive: -30.2%
CCOC(=O)C1=C(O)c2ccccc2C(=O)/C1=C\c1ccc(CC)cc1	inconclusive: 10.3 µM [cytotoxic, partial curve, poor fit]	
CCOC(=O)c1ccc(NC(=S)NNC(C)(C)C)cc1		inconclusive: -2.72%
CC(=O)c1ccc(-c2cccs2)s1		inconclusive: -58.1%
COC(=O)c1nc(NC(=O)c2ccc(Br)cc2)n[nH]1		inconclusive: -1.49%
Cc1cccc(-c2nc(CSc3nc4c(c(=O)[nH]3)CCC4)c(C)o2)c1	inconclusive: 14.6 µM [activator, partial curve]	
CCOc1ccc(N(C(C)C(=O)NN=C2CCCCCCC2)S(C)(=O)=O)cc1 (stereo not given)		inconclusive: 4.88%
C/C(=N\NC(=O)c1ccn(C)n1)c1ccc(NC(=O)C2CCC2)cc1	active: 13 µM	
COc1ccc(C(=O)NCCc2nnc3ccc(SCC(=O)N4CCCC4)nn23)cc1		inconclusive: -27.2%
COCc1cc(=O)[nH]c2cc(NC(=O)C(F)(F)F)c(C)cc12		inconclusive: -11.2%
NC(=O)c1ccsc1NC(=O)COC(=O)C1CC2CCCC(C1)C2=O (stereo not given)		inconclusive: -35.5%
CC(C)C(NC(=O)C1CCC(C(C)(C)C)CC1)C(=O)NCCCN1CCCCC1 (stereo not given)		inconclusive: -29.3%
Cc1cc(NC(=O)Nc2ccc(OCc3ccccc3)cc2)n(C)n1		inconclusive: 5.48%
Cc1cc(Cl)c(S(=O)(=O)NCC2CCCO2)cc1OCC(N)=O (stereo not given)		inconclusive: 44.7%

Gathered by group: the entries above containing an aryl thioether with sulfur outside any ring (4)
Compound	Potency	lipid storage change, negative = inhibition
Cc1nc(-c2ccccn2)nc(SCC(=O)N2CCOCC2)c1Cl		inconclusive: 18.9%
Cc1ccc(Oc2ccc(NC(=O)CSc3n[nH]c(N)n3)cc2)cc1	inconclusive: 0.517 µM [rising, full curve]	
Cc1cccc(-c2nc(CSc3nc4c(c(=O)[nH]3)CCC4)c(C)o2)c1	inconclusive: 14.6 µM [activator, partial curve]	
COc1ccc(C(=O)NCCc2nnc3ccc(SCC(=O)N4CCCC4)nn23)cc1		inconclusive: -27.2%

Additional structures follow.

Compound	Potency	lipid storage change, negative = inhibition
N#CC1=C(N)N=C(SCc2cccc3ccccc23)C(C(N)=O)C12CCCCC2 (stereo not given)	inconclusive: 29.1 µM [cytotoxic, single point]	
O=C(O)c1ccc(NCc2cccnc2)cc1		inconclusive: -44%
COc1ccc(C(=O)N/C(=C\c2ccccc2)C(=O)NCCCn2ccnc2)cc1		inconclusive: -100%
COCCn1c(COc2cccc(OC)c2)nnc1SCC(=O)NC1CCCCC1		inconclusive: 44.9%
CC(=O)Nc1ccc(Nc2cc(C)nc3c(-c4ccc(Cl)cc4)cnn23)cc1		inconclusive: -68.9%
Cc1ccc(C2C(N)C(=O)N2c2ccc(C)cc2)cc1 (stereo not given)	inconclusive: 6.51 µM [falling, single point]	
Cc1cc(C)n(C(C)CC(=O)Nc2ccc(-c3ccno3)cc2)n1 (stereo not given)	inconclusive: 23.1 µM [falling, single point]	
CCOC(=O)C1(Cc2ccc(OC)cc2)CCN(C(=O)CN2CCOC2=O)CC1		inconclusive: 6.81%
COc1ccccc1Cn1c(=S)[nH]c2cc(C(=O)NCCN3CCOCC3)ccc2c1=O		inconclusive: -33.8%
CCC(c1nnnn1Cc1ccccc1)N(Cc1ccco1)Cc1cc2cc(OC)ccc2[nH]c1=O (stereo not given)		inconclusive: -21%
CCc1nn(C)c(-c2n[nH]c(=S)n2N)c1Cl		inconclusive: -25.5%
O=C(O)c1cccc2c1C(=O)N(C1CCCCC1)C2		inconclusive: -19.6%
O=C(CCN1CCN(c2ccccc2)CC1)NNC(=S)Nc1ccccc1Cl		inconclusive: 24.6%
CS(=O)(=O)Nc1ccc(C2=NN(C(=O)c3ccco3)C(c3ccccc3)C2)cc1 (stereo not given)	inconclusive: 0.517 µM [falling, full curve]	
COc1cccc(NC(=O)CN(C)C(=O)/C=C/c2cn(-c3ccccc3)nc2-c2cccs2)c1		inconclusive
COc1ccc([C@@H]2C[C@@H](c3ccccc3)Oc3cc(OC)c(OC)c(OC)c32)cc1		inactive
CCCc1nc2ccccc2c(=O)n1/N=C/c1ccc(O)cc1		inconclusive: -13.8%
CCn1cc(C(=O)NNC(=O)c2ccc(Cl)cc2)c(=O)c2ccc(C)nc21		inconclusive: 2.97%
O=C(CN1C(=O)c2ccccc2S1(=O)=O)Nc1ccc(S(=O)(=O)N2CCCC2)cc1		inconclusive: -9.73%
CC(C)(C)c1ccccc1OCC(=O)NCCC(=O)O		inconclusive: 10.4%
CCOc1cccc(C(=O)NNC(=O)CCC(=O)O)c1		inconclusive: -19.1%
COc1ccccc1NS(=O)(=O)c1cccc(C(=O)N/N=C(\C)c2ccc3c(c2)OCCO3)c1		inconclusive: 19.4%
O=C(CSc1ccc(Cl)cc1)Nc1nnc(-c2ccco2)o1		inconclusive: 7.81%
O=S(=O)(c1ccc(Oc2ncnc3scc(-c4ccccc4)c23)cc1)N1CCOCC1	inconclusive: 0.461 µM [activator, single point]	
O=C(CCC(=O)N(CC(=O)NC1CCCCC1)c1ccccc1F)Nc1nccs1	inconclusive: 29.1 µM [rising, single point]	

Source: PubChem BioAssay AID2685 (National Center for Advancing Translational Sciences (NCATS), 2010)
